# Results deposited as PubChem BioAssay AID1259308 (NCATS, 2017)
# Aim: 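Candidate targets for better recombinant protein yield in mammalian cells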 (primary screen)
# Cell system: human HEK293 embryonic kidney cells stably expressing firefly luciferase (HEK-CMV-Luc2-Hygro)
# Reagents: single siRNA against human genes, 0.8 pmol siRNA per well
# Time to read-out: 72 h
# Measured: 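Reporter luminescence and viable-cell signal on separate replicate plates, given as percent of non-targeting control and median/MAD z-scores, plus per-cell luciferase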
# Direction: total luciferase, z-score and total luciferase, % of control: higher = more reporter protein produced; luciferase per cell, z-score: higher = more reporter output per viable cell
# Call rule: 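Active when the median/MAD z-score for overall luciferase is greater than 3; a gene was taken forward for validation with new siRNAs if at least two of its three siRNAs passed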
# Calls: active = raised luciferase; inactive = no rise
# Here is a random part of about 59,000 reagents tested. In the full data, about 1,510 (2.6%) got an active call. 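Calls use total luciferase alone and ignore viability, so some active siRNAs may act by altering cell number.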 Unmarked entries are inactive. Not all columns of the deposit are shown.
gene knocked down,PubChem SID,"total luciferase, z-score","total luciferase, % of control","luciferase per cell, z-score"
FTHL17,SID160741515,0.529,92.4,0.226
FTHL17,SID160741516,0.691,95.6,0.456
FTHL17,SID160741517,-0.202,77.9,-0.793
FXYD5,SID160731437,-0.495,72.1,-0.871
FXYD5,SID160741462,0.616,94.1,-0.231
FXYD5,SID160741463,4.2 (active),165,1.98
CACNG6,SID160746977,-1.59,50.2,-0.794
CACNG6,SID160746979,-1.3,55.9,-1.12
CACNG6,SID160746980,-1.09,60.2,-1.79
MTA3,SID160726826,-0.0244,81.4,-0.652
MTA3,SID160746125,1.17,105,1.34
MTA3,SID160746126,-0.0346,81.2,0.343
MTA3,SID160746127,0.64,94.6,0.401
MTA3,SID160772134,0.545,92.7,0.419
MTA3,SID160772135,-0.565,70.6,-1.28
PCDHA9,SID160722994,0.217,86.2,0.775
PCDHA9,SID160724233,0.748,96.8,0.48
PCDHA9,SID160724234,-1.71,47.9,-0.205
GLYATL1P4,SID160768937,-0.933,63.3,-1.08
GLYATL1P4,SID160768938,-0.725,67.5,0.563
GLYATL1P4,SID160768939,-1.68,48.5,-2.34
ZNF250,SID160746864,-0.924,63.5,-0.638
ZNF250,SID160746865,-2.19,38.3,-1.33
ZNF250,SID160746866,-0.183,78.2,0.838
HAUS3,SID160748865,1.26,107,0.544
HAUS3,SID160748866,-1.8,46,-1.55
HAUS3,SID160748868,0.437,90.6,-0.235
MED14OS,SID160726571,0.9,99.8,0.358
MED14OS,SID160734291,2.48,131,2.95
MED14OS,SID160771521,0.99,102,0.612
RTL9,SID160746189,-1.37,54.7,-0.785
RTL9,SID160746190,-0.11,79.7,-0.524
RTL9,SID160746191,-0.325,75.4,-0.349
ISCA1,SID160750946,2.51,132,2.19
ISCA1,SID160750947,-1.27,56.6,-0.635
ISCA1,SID160750948,-1.74,47.2,-1.11
MMS22L,SID160762093,1.4,110,1.69
MMS22L,SID160762094,-0.406,73.8,0.101
MMS22L,SID160762095,0.17,85.3,0.717

A few values from above:
Result of MED14OS [SID160771521] in “total luciferase, % of control”: 102
RTL9 [SID160746189], total luciferase, z-score → -1.37
CACNG6 [SID160746980], total luciferase, % of control = 60.2
Under “total luciferase, z-score”, ISCA1 [SID160750948] is entered as -1.74
ZNF250 [SID160746864], total luciferase, % of control → 63.5
Under “luciferase per cell, z-score”, FXYD5 [SID160741463] is entered as 1.98 (active)
